Experimental data from patent EP4549150A1, “RESIN COMPOSITION FOR THREE-DIMENSIONAL PRINTING” (Cubicure GmbH, priority 2023, dated 2025).
Some results were stated once for a whole list of compounds, not compound by compound.

Assays:
[1] = Viscosity by rheology (temperature ramp, cone-plate rheometer); assay type: physicochemical; settings: 25°C (room temperature), shear rate 60 s^-1
Method: Viscosity is another crucial parameter on the development of a reactive diluent. To obtain an effective reactive diluent, monomers providing a low viscosity need to be obtained. The referred viscosity is preferably between 5 and 100 mPa.s, more preferably between 5 and 50 mPa.s, and even more preferably 5 and 20 mPa.s. The presented viscosities refer to the process temperature which can be between 30-150°C. The viscosity was determined via rheology. Rheology measurements were performed using an Anton Paar MCR 102 rheometer, equipped with a P-PTD 200/GL Peltier glass plate and an H-PTD200 heating hood. For measuring the rheological properties, a temperature ramp experiment was performed from 25-100°C with a heating rate of 0.5°C min^-1, using a CP25 measurement system (cone plate with a 2° angle and 25 mm diameter) at a gap distance of 0.1 mm and with a shear rate of 60 s^-1.

[2] = Volatility: weight loss after 24 hours in oven; assay type: physicochemical; settings: 50°C
Method: Volatility can be assessed from the weight lost after 24 hours, and is preferably below 10%, more preferably below 5% and even more preferable below 1% at the process temperature (between 30 and 150°C). For the determination of the volatility of the compounds 25 mL flasks (Ø 30 mm) with approximately 2 grams of the test compound were placed in a Memmert oven at 50 °C and 80°C for 24 hours and the volatility was determined as the weight loss in percent (w/w).

C=C(C)C(=O)OC1CCCCC1OC(=O)C1CCCCC1 (stereo not shown) [Ex2, 2-(cyclohexylcarbonyloxy)cyclohexyl methacrylate]
Viscosity ([1]; listed as example 2): ≤ 50 mPa.s
Volatility [weight loss %] ([2]; listed as example 2): ≤ 5%

C=C(C)C(=O)OC1CCCCC1O (stereo not shown) [Ex1, 2-hydroxycyclohexyl methacrylate]
Viscosity ([1]; listed as example 1): ≤ 50 mPa.s
Volatility [weight loss %] ([2]; listed as example 1): ≤ 5%

C=C(C)C(=O)OC1CCCCC1OC(=O)C(CC)CCCC (stereo not shown) [Ex5, 2-(isopropenylcarbonyloxy)cyclohexyl 2-ethylhexanoate]
Volatility [weight loss %] ([2]; listed as example 5): ≤ 5%

C=C(C)C(=O)OC1CCCCC1OC(=O)C(C)(C)C (stereo not shown) [Ex3, 2-(isopropenylcarbonyloxy)cyclohexyl 2,2-dimethylpropionate]
Viscosity ([1]; listed as example 3): ≤ 50 mPa.s
Volatility [weight loss %] ([2]; listed as example 3): ≤ 5%
